Assay results as given in PubChem BioAssay AID328 (DTP/NCI, 2004).
The list shows only some results of the screen, not a fair sample: it is rich in T/C values a quarter to a half above the control, in often repeated tests (any T/C) and in doses without a T/C. Other doses and runs of a compound stand elsewhere. T/C: endpoint of the treated group in % of that of the vehicle group. Some doses have a count of surviving animals in place of a T/C: the source files T/C as zero there, which appears to mark a toxic dose or a test without result, not a measured value. Some survivor counts are full or nearly so, which does not show that the dose was tolerated: survival well below the control is almost never listed, so the zero probably covers shortened survival too. Counts of survivors are from the toxicity check (mostly the fifth day) where no day follows; animals may have died later. Schedules are NCI's codes, read here as Q, the interval in days (D) or hours (H), X, the number of doses. Some entries hold several experiments; the values are given in rising order. Where survival is the endpoint, the PubChem record calls one and a half times the control and up active, and a quarter to a half above the control has no call in these data; cut-offs in other NCI protocols can differ. Some T/C values are followed by the survivors on the day toxicity was checked, most often the fifth; without a count, all were alive then. Starred links: 1 amine or outer side, 2 acyl side, 3 side chain; linkers in the order of their positions; H or OH if unused. Positions of bridges follow the written chain, without caps; N, C: chain ends. Non-standard residues stand in square brackets, D forms with d. Residues, ends and D or L forms follow the SMILES beside them. Chains are numbered I, II in the order given. Actinocin(9to1) = Cc1c2oc3c(C)ccc(C(=O)[*:1])c3nc-2c(C(=O)[*:2])c(N)c1=O; NMeV = CN[CH](C(=O)O)C(C)C; Aze = O=C(O)[CH]1CCN1; Sar = CNCC(=O)O

System: BDF1 mice, P388 leukemia ip, median survival T/C
Assay: NCI In Vivo Anticancer Drug Screen. Data for tumor model P388 Leukemia (intraperitoneal) in B6D2F1 (BDF1) mice
Conditions: T/C endpoint: median survival time, higher T/C = longer survival
Outline: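 Read-out is survival of treated animals expressed relative to the vehicle group, as a T/C ratio.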

[1] = dose: 200.0 mg/kg/injection, schedule: Q04DX002 (ip), vehicle: saline with Tween-80
[2] = dose: 100.0 mg/kg/injection, schedule: Q01DX009 (ip), vehicle: saline
[3] = dose: 200.0 mg/kg/injection, schedule: Q01DX009 (ip), vehicle: saline
[4] = dose: 400.0 mg/kg/injection, schedule: Q01DX009 (ip), vehicle: saline with Tween-80
[5] = dose: 200.0 mg/kg/injection, schedule: Q04DX003 (ip), vehicle: saline with Tween-80

Structure (SMILES): CCC1C/C(=C2/NC3CCCCC3NC2=O)C(=O)O1 (stereo not given)
- survivor count (dose: 100.0 mg/kg/injection, schedule: Q04DX002 (ip), vehicle: saline with Tween-80): 0 of 6
- survivor count [1]: 3 of 6
- survivor count (dose: 400.0 mg/kg/injection, schedule: Q04DX002 (ip), vehicle: saline with Tween-80): 0 of 6

Structure (SMILES): COC(=O)C1(C(=O)OC)C2CC(C)=C(C)CC21 (stereo not given)
- survivor count (dose: 75.0 mg/kg/injection, schedule: Q04DX003 (ip), vehicle: saline): 6 of 6

Structure (SMILES): CCC(=O)O[C@H]1CC[C@H]2[C@@H]3C[C@H](F)C4=CC(=O)CC[C@]4(C)[C@H]3CC[C@]12C
- survivor count (dose: 100.0 mg/kg/injection, schedule: Q01DX009 (ip), vehicle: saline sonified): 6 of 6
- survivor count (dose: 200.0 mg/kg/injection, schedule: Q01DX009 (ip), vehicle: saline sonified): 5 of 6

Structure (SMILES): N/C(=N/N=C/c1ccncc1)N[N+](=O)[O-]
- survivor count [2]: 4 of 6
- survivor count [3]: 1 of 6

Structure (SMILES): CCN1CCC2(CC1)COCc1ccccc12
- survivor count [1]: 0 of 6

Structure (SMILES): Oc1ccc(Br)c2cccnc12
- survivor count (dose: 400.0 mg/kg/injection, schedule: Q01DX010 (ip), vehicle: saline): 2 of 6

Structure (SMILES): COc1cc2c(c(OC)c1OC)-c1ccc(OC)c(=O)cc1[C@@H](NC(C)=O)CC2
- T/C (dose: 0.06 mg/kg/injection, schedule: Q01DX009 (ip), vehicle: water): 146 % of control
- T/C (dose: 0.08 mg/kg/injection, schedule: Q01DX010 (ip), vehicle: saline): 136 % of control
- survivor count (dose: 0.5 mg/kg/injection, schedule: Q01DX009 (ip), vehicle: water): 6 of 6
- survivor count (dose: 1.0 mg/kg/injection, schedule: Q01DX009 (ip), vehicle: water): 2 of 6
- T/C (dose: 63.0 micrograms/kg/injection, schedule: Q01DX009 (ip), vehicle: saline): 130 % of control
- T/C (dose: 125.0 micrograms/kg/injection, schedule: Q01DX009 (ip), vehicle: saline): 141 % of control

Structure (SMILES): CN(C)[C@@H]1C(=O)C(C(N)=O)=C(O)[C@@]2(O)C(=O)C3=C(O)c4c(O)ccc(Cl)c4[C@@](C)(O)[C@H]3C[C@@H]12
- T/C (dose: 50.0 mg/kg/injection, schedule: Q01DX009 (ip), vehicle: saline): 135 % of control
- T/C [2]: 125 % of control
- T/C (dose: 132.0 mg/kg/injection, schedule: Q01DX009 (ip), vehicle: saline): 127 % of control
- T/C [3]: 127 and 140 % of control
- survivor count (dose: 300.0 mg/kg/injection, schedule: Q01DX009 (ip), vehicle: saline): 0 of 6 and 1 of 6

Structure (SMILES): CCCCCC[P+](c1ccccc1)(c1ccccc1)c1ccccc1
- survivor count (dose: 25.0 mg/kg/injection, schedule: Q01DX009 (ip), vehicle: saline): 3 of 6
- survivor count (dose: 25.0 mg/kg/injection, schedule: Q04DX003 (ip), vehicle: saline): 4 of 6

Structure (SMILES): Cc1c2oc3c(C)ccc(C(=O)NC4C(=O)NC(C(C)C)C(=O)N5CCC5C(=O)N(C)CC(=O)N(C)C(C(C)C)C(=O)OC4C)c3nc-2c(C(=O)NC2C(=O)NC(C(C)C)C(=O)N3CCC3C(=O)N(C)CC(=O)N(C)C(C(C)C)C(=O)OC2C)c(N)c1=O (stereo not given) (I: TV[Aze][Sar][NMeV] / II: TV[Aze][Sar][NMeV]; ester I:1-I:C, II:1-II:C; linker I:N-II:N via Actinocin(9to1); configuration not given here)
- T/C (dose: 0.9 mg/kg/injection, schedule: Q04DX003 (ip), vehicle: saline): 138 % of control
- T/C (dose: 1.3 mg/kg/injection, schedule: Q04DX003 (ip), vehicle: saline): 129 % of control
- T/C (dose: 150.0 micrograms/kg/injection, schedule: Q04DX003 (ip), vehicle: saline + alcohol): 142 % of control
- T/C (dose: 225.0 micrograms/kg/injection, schedule: Q04DX003 (ip), vehicle: saline + alcohol): 126 % of control
- T/C (dose: 300.0 micrograms/kg/injection, schedule: Q04DX003 (ip), vehicle: saline + alcohol): 185 [7 of 8 alive], 212, 242, 256 % of control
- T/C (dose: 600.0 micrograms/kg/injection, schedule: Q04DX003 (ip), vehicle: saline + alcohol): 132, 215, 270, 297, 302 % of control
- T/C (dose: 1200.0 micrograms/kg/injection, schedule: Q04DX003 (ip), vehicle: saline + alcohol): 145 % of control [7 of 8 alive]

Structure (SMILES): COc1ccc2c3csc4ccccc4c-3nc2c1
- survivor count (dose: 50.0 mg/kg/injection, schedule: Q01DX009 (ip), vehicle: Klucel (hydroxypropylcellulose) (HPC)): 5 of 6
- survivor count (dose: 50.0 mg/kg/injection, schedule: Q04DX003 (ip), vehicle: Klucel (hydroxypropylcellulose) (HPC)): 2 of 6
- survivor count (dose: 150.0 mg/kg/injection, schedule: Q04DX003 (ip), vehicle: Klucel (hydroxypropylcellulose) (HPC)): 4 of 6
- survivor count (dose: 225.0 mg/kg/injection, schedule: Q04DX003 (ip), vehicle: Klucel (hydroxypropylcellulose) (HPC)): 0 of 6
- survivor count (dose: 300.0 mg/kg/injection, schedule: Q01DX001 (ip), vehicle: Klucel (hydroxypropylcellulose) (HPC)): 1 of 6
- survivor count (dose: 335.0 mg/kg/injection, schedule: Q04DX003 (ip), vehicle: Klucel (hydroxypropylcellulose) (HPC)): 0 of 6

Structure (SMILES): CCOC(=O)c1[nH]cnc1/N=N/N(C)C
- survivor count (dose: 40.0 mg/kg/injection, schedule: Q01DX009 (ip), vehicle: saline with Tween-80): 5 of 6

Structure (SMILES): Cc1cc(NCCCCCCNc2cc(C)nc3ccc(N)cc23)c2cc(N)ccc2n1
- survivor count (dose: 300.0 mg/kg/injection, schedule: Q04DX003 (ip), vehicle: Klucel (hydroxypropylcellulose) (HPC)): 6 of 6

Structure (SMILES): CCCCCC(O)CCCCC
- survivor count [4]: 5 of 6

Structure (SMILES): O=C(Nc1cccc2ccccc12)C(F)(F)F
- survivor count [5]: 3 of 6
- survivor count (dose: 400.0 mg/kg/injection, schedule: Q04DX003 (ip), vehicle: saline with Tween-80): 0 of 6

Structure (SMILES): CCCOc1cc([N+](=O)[O-])cc([N+](=O)[O-])c1
- survivor count (dose: 400.0 mg/kg/injection, schedule: Q01DX001 (ip), vehicle: saline with Tween-80): 1 of 6

Structure (SMILES): NCCCCC(N)C(=O)NC(CCCN=C(N)N)C(=O)O (stereo not drawn) (H-Lys-Arg-OH; configuration not given here)
- survivor count (dose: 12.5 mg/kg/injection, schedule: Q01DX009 (ip), vehicle: water): 6 of 6

Structure (SMILES): Cc1cccc2cc3cccc(C)[n+]3cc12
- survivor count (dose: 10.0 mg/kg/injection, schedule: Q01DX010 (ip), vehicle: saline): 0 of 6
- survivor count (dose: 20.0 mg/kg/injection, schedule: Q01DX010 (ip), vehicle: saline): 0 of 6
- survivor count (dose: 40.0 mg/kg/injection, schedule: Q01DX010 (ip), vehicle: saline): 0 of 6

Structure (SMILES): CC(=O)O[C@]1(C(C)=O)CC[C@H]2[C@@H]3C=C(Cl)C4=CC(=O)[C@@H]5C[C@@H]5[C@]4(C)[C@H]3CC[C@@]21C
- survivor count (dose: 400.0 mg/kg/injection, schedule: Q01DX009 (ip), vehicle: Klucel (hydroxypropylcellulose) (HPC)): 6 of 6

Structure (SMILES): Cc1c(O)ccc(=O)n1O
- T/C (dose: 80.0 mg/kg/injection, schedule: Q01DX009 (ip), vehicle: saline with Tween-80): 138 % of control
- T/C (dose: 80.0 mg/kg/injection, schedule: Q01DX009 (ip), vehicle: saline): 136 % of control
- T/C (dose: 160.0 mg/kg/injection, schedule: Q01DX009 (ip), vehicle: Klucel (hydroxypropylcellulose) (HPC)): 135 % of control [5 of 6 alive]
- survivor count (dose: 320.0 mg/kg/injection, schedule: Q01DX009 (ip), vehicle: Klucel (hydroxypropylcellulose) (HPC)): 5 of 6
- survivor count [4]: 5 of 6

Structure (SMILES): NC(=S)N/N=C\c1nccc2c(C(F)(F)F)cccc12
- survivor count (dose: 50.0 mg/kg/injection, schedule: Q04DX003 (ip), vehicle: saline with Tween-80): 1 of 6
- survivor count (dose: 100.0 mg/kg/injection, schedule: Q04DX003 (ip), vehicle: saline with Tween-80): 0 of 6
- survivor count [5]: 0 of 6

Structure (SMILES): CCCCCCCCCCCCCCOc1ccc(Cc2ccccc2)cc1
- survivor count (dose: 400.0 mg/kg/injection, schedule: Q04DX003 (ip), vehicle: Klucel (hydroxypropylcellulose) (HPC)): 6 of 6

Structure (SMILES): C1=C(CC2=C[P+](c3ccccc3)(c3ccccc3)C=C(c3ccccc3)O2)OC(c2ccccc2)=C[P+]1(c1ccccc1)c1ccccc1
- survivor count (dose: 50.0 mg/kg/injection, schedule: Q01DX005 (ip), vehicle: saline with Tween-80): 1 of 5
- survivor count (dose: 100.0 mg/kg/injection, schedule: Q01DX005 (ip), vehicle: saline with Tween-80): 0 of 5
- survivor count (dose: 200.0 mg/kg/injection, schedule: Q01DX005 (ip), vehicle: saline with Tween-80): 0 of 5

Structure (SMILES): CCOC(=O)C(Br)(C(=O)OCC)C(c1ccccc1)c1ccccc1
- survivor count (dose: 200.0 mg/kg/injection, schedule: Q01DX009 (ip), vehicle: saline with Tween-80): 4 of 6
